According to PubChem BioAssay AID540336 (Broad Institute, 2011):
In all, about 330,000 compounds went through this assay and about 520 (0.16%) were called active. Inconclusive results, whose numbers are uncertain, are shown with a selection of clear calls.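 How the source made its calls: active means inhibition of at least 50% in every replicate; inconclusive means best replicate reaches 50% inhibition but some replicates fall short; inactive means the rest.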

Sequences of proteins named here, by UniProt entry; tags and fusion partners are left off.
UniProt Q5AAJ8, whole entry, looked up: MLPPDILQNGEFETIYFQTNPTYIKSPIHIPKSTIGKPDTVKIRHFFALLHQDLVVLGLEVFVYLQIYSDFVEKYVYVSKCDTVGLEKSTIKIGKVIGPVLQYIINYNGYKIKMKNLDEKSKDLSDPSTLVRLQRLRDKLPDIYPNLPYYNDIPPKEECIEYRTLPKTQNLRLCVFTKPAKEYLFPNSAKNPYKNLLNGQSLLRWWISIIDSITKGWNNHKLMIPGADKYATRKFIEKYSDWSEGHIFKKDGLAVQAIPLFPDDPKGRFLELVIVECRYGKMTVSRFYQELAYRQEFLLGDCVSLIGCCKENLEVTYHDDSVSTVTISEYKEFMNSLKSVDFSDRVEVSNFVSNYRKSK

Biological target: Histone acetyltransferase RTT109 (Candida albicans (strain SC5314 / ATCC MYA-2876)) (UniProt Q5AAJ8)
Experiment: Rtt109-Vps75 histone acetyltransferase blockade – biochemical, ThioGlo CoA-SH fluorescence, plate reader, primary screen (AID 540336)
Settings: purified Rtt109/Vps75, ThioGlo CoA-SH fluorescence, 4 h; at 34.9 µM; stronger effect = higher value

inhibition, inconclusive:
CN(C)S(=O)(=O)N1CCN(S(=O)(=O)c2ccc(F)cc2)CC1 30.7%, NS(=O)(=O)c1cccc(NC(=O)COC(=O)c2ccccc2C(=O)c2ccccc2)c1 29%, COC(=O)c1cc(OC)c(OC)cc1NC(=S)N1CCC(C(N)=O)CC1 27.9%, Nc1c(/C=C2\C=Nc3ccccc32)c(=O)nc2sc(CC(=O)N3CCOCC3)nn12 33.9%, CCc1c(O)nc(SCC(=O)Nc2ccc3c(c2)CCC3)[nH]c1=O 35.5%, CN(C)c1ccc(NS(=O)(=O)c2cc3c4c(c2)CC(=O)N4CCC3)cc1 63.3%, Cc1ccc(CNc2ccc3c(c2)ncn3C)cc1 38.3%, CCOC(=O)C1CCN(C(=O)CC(C)c2ccccc2)CC1 (centres undefined) 34.6%, O=C(NCC1CCCO1)C1CCN(C(=O)c2ccc(Cl)cc2)CC1 (centres undefined) 35.1%, COc1ccc(S(=O)(=O)N2CCC(C(=O)N[C@H](C(=O)N3CCCC3)C(C)C)CC2)cc1 61.3%, CSc1ccc(C2C(C(=O)c3ccco3)=C(O)C(=O)N2c2nnc(SC)s2)cc1 (centres undefined) 25.7%, O=c1[nH]c(-[n+]2ccc3ccccc3c2)c(/C=N/N=C(\[O-])c2ccccc2)s1 41.1%, N#CC1=C(N)n2c(s/c(=C\c3ccco3)c2=O)=C(C#N)C1c1ccco1 (centres undefined) 40.3%, COc1ccc(NC(=O)NC23CC4CC(CC(C4)C2)C3)cc1OC 35.4%, C#CCOCCOCCOCCNc1nc(N2CCN(C(=O)C([C@@H](C)O)n3cc([C@@H](N)CCCCN)nn3)CC2)nc(N2CCN(C(=O)[C@H](CCCCN)n3cc(CN)nn3)CC2)n1 (some centres undefined) 43%, COc1ccc(OCC(O)CN2CCNCC2)cc1 (centres undefined) 35.3%, CN(C)CCCN(C(=O)c1ccc(C(=O)c2ccccc2)cc1)c1nc2ccc(F)cc2s1 44.6%, CCc1ccc(S(=O)(=O)/N=C2/C=C(Sc3ncn[nH]3)C(=O)c3ccccc32)cc1 136%, CC(C)(C)[C@@H]1COC(=O)[C@H](Cc2ccc(F)cc2)CC/C=C\C[C@@H](CC(=O)N(CCO)Cc2ccccc2)C(=O)N1 33.4%, Cc1cccc(N2CN(Cc3ccco3)CNC2=S)c1 155%, Cn1cc(C(=O)c2ccc(Cl)cc2Cl)cc1C(=O)N/N=C(\N)COc1ccc(F)cc1 43.5%, COc1ccccc1-n1cc(C(=O)NCC(=O)NCc2ccc(F)cc2)c2ccccc2c1=O 22%, O=C(O)CCN1C(=O)CC(N2C(=O)/C(=C/c3ccc(Cl)cc3)SC2=S)C1=O (centres undefined) 73.5%, NCCOc1ccc(C23CC4CC(CC(C4)C2)C3)cc1 53.7%, CCCOc1ccc([N+](=O)[O-])cc1C1NC(=S)NC(c2ccccc2)=C1C(=O)OCC (centres undefined) 39.6%, CC(C)c1ccc(Nc2nc(Cl)nc(Cl)n2)cc1 15.3%, CCCCCC/C(C)=C1/SC(=S)NC1=O 49.9%, c1cnc2nc3c4ccccc4c4ccccc4c3nc2c1 19.2%, CCn1ncc(Br)c1C(=O)Nc1ccc(Cl)cn1 35.2%, O=C(CN1CCN(S(=O)(=O)c2ccc(Cl)cc2)CC1)NC(=O)NC1CCCCC1 37.8%, C[C@@H](CN1C2=NC[C@H](Cc3ccc(O)cc3)N2C[C@H]1Cc1ccc(O)cc1)NC(=O)CCC1CCCCC1 28.4%, COc1cc(OC)c2c(c1)S(=O)(=O)C(c1ccccc1)=C2N 26.4%, CCCN(CCC)Cc1c(C(=O)N/N=C/c2ccsc2)nnn1-c1nonc1N 35.9%, O=C(C1CCN(S(=O)(=O)c2ccccc2F)CC1)N1CCCC1 26.4%, Nc1ccc(N2CCCCC2)cc1N1CCCCC1 48.6%, COc1nc(-c2ccccc2)ncc1S(=O)(=O)c1ccccc1 24.9%, CCOc1ccc(C2NC(=O)C(C#N)=C(S)N2c2ccc(C)cc2)cc1OC (centres undefined) 31.3%, O=C(c1ccc(OCCN2CCCCC2)cc1)c1c(-c2ccc(O)cc2)sc2cc(O)ccc12 30.8%, CCCc1nc2oc3c(NCCN(C)C)ncnc3c2c2c1CCCC2 48.7%, Cc1cc(C)c2c(-n3cccc3)c(C(=O)NNS(=O)(=O)c3ccc(Cl)cc3)sc2n1 50%, O=C(Cc1ccccc1Cl)N1CCN(c2ncccn2)CC1 27.2%, CCOC(=O)/C=C/C(=O)OCC(=O)Nc1ccc([N+](=O)[O-])cc1 29.3%, O=C(NC1CCCCC1)C(c1ccc(O)cc1)N(CC1CCCO1)C(=O)C1COc2ccccc2O1 (centres undefined) 31.7%, CCN(CC)CCOC(=O)c1ccc(N/C=C(/C#N)c2nc(-c3ccc4c(c3)OCO4)cs2)cc1 35%, O=C(CC(c1ccccc1)c1cc(Cl)ccc1O)N1CCOCC1 (centres undefined) 38.2%, Cc1cc(C)c2c(=O)n(CC(=O)N3CCC(N4CCCCC4)CC3)sc2n1 48.8%, Cc1ccc(S(=O)(=O)N2[C@@H](c3cccc(Cl)c3)C(C(=O)O)=CC[C@H]2c2cccc(Cl)c2)cc1 33.5%

inhibition, active:
COc1cccc(/C=C2\SC(=S)N(C(C)C(=O)NC3C=CS(=O)(=O)C3)C2=O)c1 (centres undefined) 154%, CCOC(=O)C(=Cc1cc(=O)c(OC)co1)C(=O)OCC 77.8%, O=S1(=O)CC(O)C(NCc2cccnc2)C1 (centres undefined) 65%, O=C(NC1CCCCC1)Oc1cc2oc(=O)sc2cc1Br 59.4%, O=C(CNC(=O)c1ccncc1)N/N=C/c1cccc([N+](=O)[O-])c1 51.5%, CC[n+]1c(C)sc2cc(C)ccc21 85.4%, CCn1c(C)c(CS(=O)(=O)c2ccccc2)[nH]c1=O 119%, CCOc1cc(/C=N/NC(=O)CSc2nncn2C)ccc1OCc1cccc(C)c1 50.3%, Cc1ccc(C(=O)NCC(=O)OCC(=O)NC(C)C2CC3CCC2C3)cc1 (centres undefined) 51%, Cc1nc(CC(C)C)cc(C(=O)N2CCCC(CNS(=O)(=O)c3cccs3)C2)n1 (centres undefined) 60.5%, O=C(Cc1ccc2cccnc2c1)c1ccc(O)cc1O 59.6%, Cc1cccc(-n2c(O)c(/C=N/NC(=O)c3ccccc3Cl)c3ccccc3c2=O)n1 64.4%, CCN(CC)c1nc2c(c(=O)[nH]c(=O)n2C)n1CCOc1ccccc1 58.3%, Nc1ccccc1Sc1nc2ccccc2[nH]1 101%, CN(C)CCCN(C(=O)CCOc1ccccc1)c1nc2c(F)cccc2s1 98.4%

inhibition, inactive:
Nc1cccc2nsnc12 2.84%, CC(C)(C)NC(=O)N1CCC(CO)(Cc2ccccc2Cl)CC1 -6.14%, Cc1ccc2c(c1)C1(C(=O)N2C)N2CC3(C)CN1CC(C)(C2)C3=O (centres undefined) 11%, COc1cc(CNCc2ccccn2)ccc1OCc1ccc(Cl)cc1Cl 34.2%, Cc1ccc2[nH]c(=O)c3cc(C(=O)N(C)Cc4ccco4)sc3c2c1 -24.6%, Cc1cccc(C)c1OCc1nnc(NC(=O)CSc2ccc(Cl)cc2)s1 -1.72%, Cc1c(/C=N/N=C2\CCC3C4CCc5cc(O)ccc5C4CCC23C)cnn1C (centres undefined) 5.7%, CCOC(=O)C1=CN2CCC[C@H]2CC1=O -1.12%, O=C(Cn1cnc2ccccc2c1=O)c1ccccc1 -0.397%, COC(=O)CCCC(=O)N1CCOCCN(C(=O)CCCC(=O)OC)CCOCC1 -7.69%, Clc1ccc(N=NN2CCOCC2)cc1 10.4%, Cc1cc(NC(=O)/C=C/c2ccccc2)c(C(C)C)cc1O -2.07%, COc1cc2ccc3c(CCN(C)C)cc(OC)c(OC)c3c2cc1OC 4.09%, O=C(Nc1cccc(O)c1)c1cc2nc(-c3ccccc3)cc(-c3ccccc3)n2n1 11.3%, Cc1cc(N2CCN(c3cccc(C)c3C)CC2)nc(-c2ccccc2)n1 -4.61%, O=C(NC12CC3CC(CC(C3)C1)C2)c1ccccc1 3.67%, CCN(CC)S(=O)(=O)c1cc(C(=O)NC2=NCCS2)ccc1Cl 4.38%, O=C(CN1CCN(Cc2cccc(Cl)c2)C1=O)NCc1cccs1 -7.62%, CCC(=O)Oc1ccc(C(=O)Nc2cccc(C(=O)NCC(C)C)c2)cc1 2.33%, CC(=O)N1[C@H](Cc2ccccc2)C=C[C@]1(C)C(=O)NCCc1c[nH]c2ccccc12 -4.33%, CC(C)(C)NC(=S)NNC(=O)c1ccc2ncccc2c1 -7.74%, Cc1ccc(CNS(=O)(=O)c2ccc(C(F)(F)F)cc2)n1C -9.9%, O=c1[nH]c2nc(Cl)nc(Cl)c2[nH]1 2.3%, COC(=O)c1ccc(CN2CCCC(C(=O)c3ccccc3OC)C2)cc1 (centres undefined) 3.22%, Cc1ccc(C(=O)O/N=C(\c2ccccc2)c2ccncc2)cc1 -4.91%, COc1ccc(Br)cc1CNCC1CCCO1 (centres undefined) 3.42%, [O-][n+]1c2c(c3c4non(O)c4ccc31)CCCC2 7.23%
